Source: patent publication US6723716B1, “7-acylamino-3-heteroarylthio-3-cephem carboxylic acid antibiotics and prodrugs thereof” (Essential Therapeutics, Inc., priority 1999, dated 2004)
Some of these results come from one statement about several compounds together.

Test system: human serum proteins
Assay: Serum binding determination by ultrafiltration/HPLC
Type: in vitro ADME
Conditions: Table 2 data
Protocol: The more accurate measurement of binding of selected cephalosporin compounds was performed using HPLC as described below.
1. Serum is placed in a shaking water bath preheated to 37±2° C. for 5 to 10 minutes to heat serum to 37° C. Serum pH is measured and recorded, while serum is 37° C. using pH paper. Measurements are taken twice, 3 minutes apart. If the pH is not 7.4±0.4 then the pH is adjusted by blowing 5% CO2/95% O2 over the serum. After blowing for several minutes, serum is heated to 37° C. and measurements are taken twice, 3 minutes apart using pH paper to determine the pH. Store at 4° C. The serum is stable for 7 days. Always check the pH before each use.
2. Before any centrifugation, the centrifuge temperature must be adjusted to 25±2° C. Preheat the centrifuge by spinning for 45 minutes at the same speed to be used in the assay (1900 g) with two tubes of water in the rotor and the temperature set to 25° C. When the centrifuge stops immediately check the temperature of the tubes of water with a calibrated thermometer. The temperature of the tubes of water must be 25±2° C. […] Continue spinning and measuring the temperature and adjusting the setting until the temperature is 25±2° C.
3. Prepare blank ultrafiltrate by pipetting blank pH 7.4 serum into an Amicon Centrifree Micropartition devices, centrifuge: fixed angle rotor, 1900 g, 25° C. for 20 minutes. Heat ultrafiltrate in a shaking water bath preheated to 37° C. Measure ultrafiltrate pH and adjust to the pH of the serum (7.4±0.2).
4. Pipette 190 ul of blank ultrafiltrate into a set of labeled 1.7 mL polypropylene microfuge tubes for 3 of each level. Pipette 10 μL of the appropriate standard stock 50, 200, 1000 μg/mL to make standards 2.5, 10, and 50 μg/mL respectively. Vortex each tube well. One set of the standard samples are mixed 1:1 with 0.2 M acetic acid and injected onto the HPLC (MSTD). These samples are the membrane standards and will be used to compare to the other standards. Pipette 190 ul of ultrafiltrate and spike with 10 ul of whatever solution (e.g. water) the standards are prepared in to make the zero standard.
5. Pipette 475 μL of blank heated pH 7.4 serum into a set of labeled 1.7 mL polypropylene microfuge tubes for 2 of each (Serum A and Serum B). Pipette 25 μL of the 1000 μg/mL standard stock into each tube, vortex each tube well to make serum standard 50 μg/mL. Remove 100 μL of serum and deproteinate with 200 μL 4% TCA while vortexing to make serum time 0 (serum 50, T0). Place serum tubes in a shaking water bath at 37° C. for 10 minutes. Pipet 100 μL of serum out and deproteinate with 200 μL 4% TCA, to make serum time 10 min (serum 50, T10). Pipet 200 ul serum standard 50 μg/mL into an ultrafiltration device, which is not treated with TCA, to determine free drug in samples (Rat Serum 50).
6. Transfer serum and standard samples to labeled Amicon Centrifree Micropartition filters, and centrifuge: 1900 g, 25° C. for 10 minutes. The extracted serum samples (T0 and T10) are spun down and supernatant is loaded into HPLC vials.
7. 100 μL of ultrafiltrate sample and 100 μL of 0.2 M acetic acid were mixed together to stabilize the compound in ultrafiltrate.
8. Transfer entire stabilized ultrafiltrate solution to a labeled autoinjector HPLC vial cap with Teflon septa, and inject on HPLC.
Peak height or area is used in a weighted linear regression.

N=C(N)NCCSCc1ncccc1SC1=C(C(=O)O)N2C(=O)[C@@H](NC(=O)/C(=N\O)c3nsc(N)n3)[C@H]2SC1 [Cmpd 14, (7R)-7-[(Z)-2-(5-amino-1,2,4-thiadiazol-3-yl)-2-(hydroxyimino)acetamido]-3-[2-(2-guanidinoethylthiomethyl)pyrid-3-ylthio]-3-cephem-4-carboxylic acid]
level of binding to human serum proteins: ≤ 80%

NCCSCc1ncccc1SC1=C(C(=O)O)N2C(=O)[C@@H](NC(=O)/C(=N\O)c3nsc(N)n3)[C@H]2SC1 [Cmpd 17, (7R)-7-[(Z)-2-(5-amino-1,2,4-thiadiazol-3-yl)-2-(hydroxyimino)acetamido]-3-[2-(2-aminoethylthiomethyl)pyrid-3-ylthio]-3-cephem-4-carboxylic acid]
level of binding to human serum proteins: ≤ 80%

NCCSCc1cnccc1SC1=C(C(=O)O)N2C(=O)[C@@H](NC(=O)/C(=N\O)c3nsc(N)n3)[C@H]2SC1 [Cmpd 18, (7R)-7-[(Z)-2-(5-amino-1,2,4-thiadiazol-3-yl)-2-(hydroxyimino)acetamido]-3-[3-(2-aminoethylthiomethyl)pyrid-4-ylthio]-3-cephem-4-carboxylic acid]
level of binding to human serum proteins: ≤ 80%

NCCSCc1cnccc1SC1=C(C(=O)O)N2C(=O)C(NC(=O)/C(=N\O)c3csc(N)n3)C2SC1 (stereo not shown) [Cmpd 19]
level of binding to human serum proteins: ≤ 80%

NCCSCc1ncsc1SC1=C(C(=O)O)N2C(=O)[C@@H](NC(=O)/C(=N\O)c3cccc(N)n3)[C@H]2SC1 [Cmpd 23, (7R)-7-[(Z)-2-(2-aminopyrid-6-yl)-2-(hydroxyimino)acetamido]-3-[4-(2-aminoethylthiomethyl)-1,3-thiazol-5-ylthio]-3-cephem-4-carboxylic acid]
level of binding to human serum proteins: > 90%

N=C(N)NCCSCc1cnccc1SC1=C(C(=O)O)N2C(=O)[C@@H](NC(=O)/C(=N\O)c3nsc(N)n3)[C@H]2SC1 [Cmpd 25, (7R)-7-[(Z)-2-(5-amino-1,2,4-thiadiazol-3-yl)-2-(hydroxyimino)acetamido]-3-[3-(2-guanidinoethylthiomethyl)pyrid-4-ylthio]-3-cephem-4-carboxylic acid]
level of binding to human serum proteins: ≤ 80%

NCCSCc1nc(Cl)sc1SC1=C(C(=O)O)N2C(=O)[C@@H](NC(=O)/C(=N\O)c3cccc(N)n3)[C@H]2SC1 [Cmpd 29, (7R)-7-[(Z)-2-(2-aminopyrid-6-yl)-2-(hydroxyimino)acetamido]-3-[2-chloro-4-(2-aminoethylthiomethyl)-1,3-thiazol-5-ylthio]-3-cephem-4-carboxylic acid]
level of binding to human serum proteins: > 90%
